Measurements reported in PubChem BioAssay AID1259425 (University of Nebraska Medical Center, 2018)

Assay: 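Seek colon cancer weak points whose silencing resembles KSR1 loss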 (primary screen)
System: HCT116 human colon cancer cells
Reagent: siRNA pool against human genes, 50 nM siRNA
Detection: 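After 50 nM siRNA pool, branched-DNA assay measures six marker transcripts per well, minus blank, normalised to the geometric mean of two housekeeping transcripts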
Direction: BNIP3L mRNA: higher = more BNIP3L transcript after knockdown
The deposit covers about 14,000 reagents; below is a random part of them. Reagents against one gene are numbered here. Further read-outs or replicates are left out here. Not stated in the record: the time to read-out.

With ZIC5 (GeneID 85416), what does the deposit list?
BNIP3L mRNA, set 1: 0.0747

For ZDHHC3 (GeneID 51304) #1, how do the results read?
BNIP3L mRNA, set 1: 0.0781

How did the screen score ZDHHC3 (GeneID 51304) #2?
BNIP3L mRNA, set 1: 0.461

What did the screen give for ZAN (GeneID 7455)?
BNIP3L mRNA, set 1: 0.121

What is on record for ZNF230 (GeneID 7773)?
BNIP3L mRNA, set 1: 0.175

With NOX4 (GeneID 50507), what does the deposit list?
BNIP3L mRNA, set 1: 0.09

Which result is listed for PCDHGA10 (GeneID 56106)?
BNIP3L mRNA, set 1: 0.111

With NCR3 (GeneID 259197), what was measured?
BNIP3L mRNA, set 1: 0.0611

What is on record for IRF2 (GeneID 3660)?
BNIP3L mRNA, set 1: 0.3

With TP53INP1 (GeneID 94241), what was measured?
BNIP3L mRNA, set 1: 0.0911

For DELEC1 (GeneID 50514), how do the results read?
BNIP3L mRNA, set 1: 0.11

What is on record for ITPKB (GeneID 3707)?
BNIP3L mRNA, set 1: 0.0909

What is on record for HEMK1 (GeneID 51409)?
BNIP3L mRNA, set 1: 0.135

With SNX13 (GeneID 23161), what was measured?
BNIP3L mRNA, set 1: 0.109

For PLD1 (GeneID 5337), how do the results read?
BNIP3L mRNA, set 1: 0.0831

What is on record for VGF (GeneID 7425)?
BNIP3L mRNA, set 1: 0.0476

For ECE2 (GeneID 9718) #1, what was measured?
BNIP3L mRNA, set 1: 0.231

How did the screen score ECE2 (GeneID 9718) #2?
BNIP3L mRNA, set 1: 0.126

With PREPL (GeneID 9581), what was measured?
BNIP3L mRNA, set 1: 0.0537

With ZNG1A (GeneID 55871), how do the results read?
BNIP3L mRNA, set 1: 0.0861

What is on record for LHX1 (GeneID 3975)?
BNIP3L mRNA, set 1: 0.123

With FIS1 (GeneID 51024), what does the deposit list?
BNIP3L mRNA, set 1: 0.0501

Which result is listed for DCAKD (GeneID 79877)?
BNIP3L mRNA, set 1: 0.237

How did the screen score PEX7 (GeneID 5191)?
BNIP3L mRNA, set 1: 0.0752

A portion of the results above, for reference:
ZNF230 (GeneID 7773): BNIP3L mRNA, set 1 = 0.175
NOX4 (GeneID 50507): BNIP3L mRNA, set 1 = 0.09
PCDHGA10 (GeneID 56106): BNIP3L mRNA, set 1 = 0.111
NCR3 (GeneID 259197): BNIP3L mRNA, set 1 = 0.0611

Continued.
For PLAC8 (GeneID 51316), what does the deposit list?
BNIP3L mRNA, set 1: 0.215

With KRT37 (GeneID 8688), how do the results read?
BNIP3L mRNA, set 1: 0.166

With TPD52 (GeneID 7163), what does the deposit list?
BNIP3L mRNA, set 1: 0.109

For ALMS1 (GeneID 7840), what does the deposit list?
BNIP3L mRNA, set 1: 0.0449

For CYTH2 (GeneID 9266), how do the results read?
BNIP3L mRNA, set 1: 0.138

With DMTF1 (GeneID 9988), what was measured?
BNIP3L mRNA, set 1: 0.194

What is on record for PGAP1 (GeneID 80055)?
BNIP3L mRNA, set 1: 0.0786

How did the screen score NHERF4 (GeneID 79849)?
BNIP3L mRNA, set 1: 0.11

What is on record for PCDHB16 (GeneID 57717)?
BNIP3L mRNA, set 1: 1.43

How did the screen score CRTAM (GeneID 56253)?
BNIP3L mRNA, set 1: 0.134

With PSMA3 (GeneID 5684), how do the results read?
BNIP3L mRNA, set 1: 0.709

With ACKR5 (GeneID 11318), what was measured?
BNIP3L mRNA, set 1: 0.282
